Source: article doi:10.1101/624627
These are yes or no findings as the source states them, for the method shown. Binding seen in cells or lysates may run through a third protein. Some results given as binding are weak or reduced against the parent protein; the word gives no strength. For some assays here: Where a sequence is shown, tags or fusion partners need not be part of it.

B1: WIPI4 (WDR45), endogenous (protein, UniProt Q9Y484 1-360)
chain: MTQQPLRGVTSLRFNQDQSCFCCAMETGVRIYNVEPLMEKGHLDHEQVGSMGLVEMLHRSNLLALVGGGSSPKFSEISVLIWDDAREGKDSKEKLVLEFTFTKPVLSVRMRHDKIVIVLKNRIYVYSFPDNPRKLFEFDTRDNPKGLCDLCPSLEKQLLVFPGHKCGSLQLVDLASTKPGTSSAPFTINAHQSDIACVSLNQPGTVVASASQKGTLIRLFDTQSKEKLVELRRGTDPATLYCINFSHDSSFLCASSDKGTVHIFALKDTRLNRRSALARVGKVGPMIGQYVDSQWSLASFTVPAESACICAFGRNTSKNVNSVIAICVDGTFHKYVFTPDGNCNREAFDVYLDICDDDDF
B2: GFP-tagged GABARAP (U2OS ATG2A/B DKO cells), O95166 1-117 (protein)
chain: MKFVYKEEHPFEKRRSEGEKIRKKYPDRVPVIVEKAPKARIGDLDKKKYLVPSDLTVGQFYFLIRKRIHLRAEDALFFFVNNVIPPTSATMGQLYQEHHEEDFFLYIAYSDESVYGL

Experiments:
Assay in all cases: co-IP
[1] = target: Endogenous GFP-tagged ATG2A (CRISPR/Cas9 knock-in) (human) (UniProt Q2TAZ0)
[2] = target: HA-tagged ATG2A wild type (human) (UniProt Q2TAZ0)
[3] = target: HA-tagged ATG2A-mLIR (FCIL/AAAA) (human) (UniProt Q2TAZ0)
[4] = target: HA-tagged ATG2A-mYFS (YFS/AAA) (human) (UniProt Q2TAZ0)
[5] = target: T1, HA-tagged ATG2A wild type (human), Q2TAZ0; settings: remark: other sources report otherwise
T1 chain: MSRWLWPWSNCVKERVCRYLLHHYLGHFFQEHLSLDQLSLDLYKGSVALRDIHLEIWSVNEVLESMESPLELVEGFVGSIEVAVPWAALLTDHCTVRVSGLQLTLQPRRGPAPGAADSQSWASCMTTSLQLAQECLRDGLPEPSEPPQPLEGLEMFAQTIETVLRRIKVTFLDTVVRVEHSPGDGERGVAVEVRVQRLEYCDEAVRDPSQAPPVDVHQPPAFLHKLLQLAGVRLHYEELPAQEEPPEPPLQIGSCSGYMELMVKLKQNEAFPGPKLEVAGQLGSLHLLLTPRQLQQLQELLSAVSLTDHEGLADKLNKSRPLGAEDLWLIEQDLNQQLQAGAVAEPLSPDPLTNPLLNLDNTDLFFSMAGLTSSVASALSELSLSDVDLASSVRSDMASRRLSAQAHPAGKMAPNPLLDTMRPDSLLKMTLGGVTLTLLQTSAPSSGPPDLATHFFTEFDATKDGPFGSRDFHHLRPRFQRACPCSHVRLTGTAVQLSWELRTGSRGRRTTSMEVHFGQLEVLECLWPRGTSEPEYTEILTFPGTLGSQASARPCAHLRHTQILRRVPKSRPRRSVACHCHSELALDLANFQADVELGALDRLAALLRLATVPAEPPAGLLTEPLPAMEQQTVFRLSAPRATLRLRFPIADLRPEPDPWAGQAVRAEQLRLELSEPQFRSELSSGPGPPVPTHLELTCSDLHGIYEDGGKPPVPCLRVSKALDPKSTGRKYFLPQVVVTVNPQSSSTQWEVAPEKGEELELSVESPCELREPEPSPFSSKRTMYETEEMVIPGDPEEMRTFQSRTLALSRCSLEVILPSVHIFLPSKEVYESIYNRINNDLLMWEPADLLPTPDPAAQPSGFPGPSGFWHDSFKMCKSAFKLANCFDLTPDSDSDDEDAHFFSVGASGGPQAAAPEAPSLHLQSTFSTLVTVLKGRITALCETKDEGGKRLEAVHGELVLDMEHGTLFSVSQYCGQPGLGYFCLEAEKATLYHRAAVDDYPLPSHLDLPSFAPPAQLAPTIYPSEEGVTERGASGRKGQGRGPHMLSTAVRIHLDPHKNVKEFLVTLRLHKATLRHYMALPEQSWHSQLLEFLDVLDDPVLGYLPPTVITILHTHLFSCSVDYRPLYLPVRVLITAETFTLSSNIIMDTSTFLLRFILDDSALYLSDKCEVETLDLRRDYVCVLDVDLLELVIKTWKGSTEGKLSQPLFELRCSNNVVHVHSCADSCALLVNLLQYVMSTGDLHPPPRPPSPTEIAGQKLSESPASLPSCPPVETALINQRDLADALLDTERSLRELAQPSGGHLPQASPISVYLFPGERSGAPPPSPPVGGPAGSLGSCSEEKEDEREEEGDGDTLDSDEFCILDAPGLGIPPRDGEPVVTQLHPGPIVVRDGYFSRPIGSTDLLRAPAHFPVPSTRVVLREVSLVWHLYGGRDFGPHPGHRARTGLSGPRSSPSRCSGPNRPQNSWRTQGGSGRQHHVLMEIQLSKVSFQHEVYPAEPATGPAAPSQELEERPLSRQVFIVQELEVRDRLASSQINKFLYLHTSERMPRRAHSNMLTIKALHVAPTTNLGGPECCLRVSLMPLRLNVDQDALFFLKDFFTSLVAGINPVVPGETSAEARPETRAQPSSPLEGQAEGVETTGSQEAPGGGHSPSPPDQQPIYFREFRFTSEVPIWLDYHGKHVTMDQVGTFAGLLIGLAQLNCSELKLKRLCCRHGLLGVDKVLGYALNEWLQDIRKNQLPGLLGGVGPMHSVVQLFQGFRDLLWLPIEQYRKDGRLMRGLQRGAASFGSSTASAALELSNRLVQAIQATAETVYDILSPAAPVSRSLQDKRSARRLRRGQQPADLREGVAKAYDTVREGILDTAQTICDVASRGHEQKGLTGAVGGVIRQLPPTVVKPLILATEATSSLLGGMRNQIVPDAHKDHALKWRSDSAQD

Row | Binder | binding [1] | binding [2] | binding [3] | binding [4] | binding [5]
1 | B1 | binds | binds | binds | no binding | 
2 | B2 |  |  |  |  | binds
